In all, about 340,000 compounds went through this assay and about 6,200 (1.8%) were called active. The shares of active, inactive and inconclusive entries below differ from those in the screen. Calls follow the shape of the dose curve; as a rule, active = well fitted activation curve with a large enough effect; inconclusive = small, poorly fitted or top-dose-only effect; inactive = no such curve, though single readings can be large or run the other way. A potency beside an inconclusive call is a rough fit, not a confirmed value.
assay: A quantitative high throughput screen for small molecules that induce DNA re-replication in SW480 colon adenocarcinoma cells.; also: nearly all actives have a fitted effect of over 55% in size; as to re-replication activation: % of control where 0% means no effect; conditions: Hoechst DNA content imaging, 48 h; re-replication activation: at 46.1 µM (top of the series) unless noted
Outline: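 Quantitative HTS format with DMSO vehicle controls; 48 hr drug incubation at 37 C, then 40 min Hoechst staining and scanning imager measurement at 405 nm excitation.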
Potency is read from the fitted curve at half-maximal effect.

SMILES	Potency	re-replication activation
CC(=O)Oc1cc2oc(=O)cc(C)c2cc1Cl	inconclusive: 20.6 µM [activator, single point]	–
Cc1ccc(S(=O)(=O)N=S(CCO)CCO)cc1	inconclusive: 18.4 µM [activator, single point]	–
COc1ccc(C(=O)N2CC3(CC(c4cccc(NC(=O)CC(c5ccccc5)c5ccccc5)c4)=NO3)C[C@H]2C(N)=O)cc1 (stereo partly specified)	–	inactive: 7.94%
COc1cccc(-c2ccc3ncnc(NCc4cccnc4)c3c2)c1	–	inactive: -7.84%
CC#CC[N+](C)(C)CCCCCCCCCCCC	inconclusive: 29.1 µM [activator, single point]	–
N=c1c2c3c(sc2ncn1Cc1ccco1)CCCCC3	inconclusive: 25.9 µM [activator, partial curve, poor fit]	–
Cc1ccc(C(=O)/C=C/c2cn(CC(O)CN3CCOCC3)c3ccccc23)cc1 (stereo unspecified)	active: 20.6 µM	–
COc1cc(OC)c2cc(C(=O)N/N=C/c3cccc(OC)c3O)[nH]c2c1	active: 3.26 µM	–
CCC(C)Sc1cccc(-c2nc3cnccn3c2NC2CCCCC2)c1 (stereo unspecified)	inconclusive: 29.1 µM [activator, single point]	–
COc1ccc2[nH]c(=O)c(CN(Cc3nnnn3Cc3ccco3)C3CCCCC3)cc2c1	inconclusive: 29.1 µM [activator, partial curve, poor fit]	–
O=C(CCSc1ccccc1Cl)Nc1cccc([N+](=O)[O-])c1	inconclusive: 1.64 µM [activator, partial curve]	–
O=C(Nc1ccc(Cl)cc1C(=O)NCc1cccnc1)c1ccc(Cl)cc1Cl	inconclusive: 25.9 µM [activator, single point]	–
O=C(CSc1nc2ccccc2c(=O)n1-c1ccccc1)N1CCc2ccccc2C1	–	inconclusive: 63.5% [activator]
COc1ccc(N=C2O/C(=C/c3sc(=S)n(CC4CCCO4)c3O)N=C2C#N)cc1 (stereo unspecified)	inconclusive: 3.66 µM [activator, partial curve, poor fit]	–
O=C(CC1C(=O)NCCN1Cc1ccc(-c2ccccc2)cc1)NCC1CC1 (stereo unspecified)	inconclusive: 20.6 µM [activator, single point]	–
COc1cccc(NC(=O)c2c(C)nn(-c3ccccc3)c2Cl)c1	inconclusive: 5.8 µM [activator, single point]	–
O=C(CSC1=NCCN1)NC1CCCCCC1	–	inactive: -1.83%
CNC(=O)c1sccc1SCc1ccc(Cl)cc1Cl	–	inactive: 1.62%
O=c1ccc2ccccc2n1Cc1cccc(F)c1	inconclusive: 20.6 µM [activator, single point]	–
CCOc1cc2c(cc1O)C(=NO)CC1C2CCC2(C)C(O)CCC12 (stereo unspecified)	inconclusive: 0.13 µM [activator, full curve, poor fit]	–
COC(=O)c1[nH]c2c(c1C)C(=O)CC(c1cc(OC)ccc1OC)C2 (stereo unspecified)	inconclusive: 16.4 µM [activator, single point]	–
Cc1ccc([N+](=O)[O-])cc1NC(=S)NC(=O)c1cccnc1	–	inactive: 6.88%
Nc1cc(C(=O)OCC(=O)N2CCCC2=O)ccc1Cl	inconclusive: 4.11 µM [activator, partial curve, poor fit]	–
Cc1cc(C)c2cc(C#N)c(NCCNC(=S)NCCCN3CCOCC3)nc2c1	inconclusive: 29.1 µM [activator, single point]	–

SMILES	Potency	re-replication activation
COC(=O)c1c(NC(=O)CN2CCN(c3cccc(Cl)c3)CC2)sc(C)c1C	inconclusive: 6.51 µM [activator, single point]	–
CCOC(=O)c1cccc(N2C(N)=NC(N)=NC2(C)C)c1	–	inactive: -2.27%
CC(C)(C)c1ccc(C(=O)Nc2ccc(N3CCOCC3)cc2)cc1	–	inactive: -1.28%
O=C(O)c1ccccc1-c1ccccc1C(=O)Nc1cccc(Br)c1	inconclusive: 29.1 µM [activator, single point]	–
CCc1ccc(NCCC(=O)c2ccc(Cl)cc2)cc1	inconclusive: 29.1 µM [activator, partial curve, poor fit]	–
O=C(c1ccc(N2C(=O)c3ccccc3C2=O)cc1)N1CCCCC1	–	inactive: -2.03%
Cc1nnc(NC(=O)CSc2ccc(-c3ccco3)nn2)s1	inconclusive: 2.59 µM [activator, partial curve, poor fit]	–
COc1cc2c(cc1OC)C1Cc3ccc(OC)c(OC)c3CN1CC2 (stereo unspecified)	–	inactive: -3.37%
N#Cc1ccccc1Sc1ccccc1C(=O)NCC(c1ccco1)N1CCCC1 (stereo unspecified)	–	inactive: 3.17%
Cc1cc(Cl)ccc1NC(=S)NCCC(c1ccccc1)c1ccccc1	–	inactive: 0.41% [at 9.22 µM]
CCOc1ccc(/C=N/NC(=O)C(C)N(c2ccc(OC)cc2)S(C)(=O)=O)cc1 (stereo unspecified)	–	inactive: -3.56%
O=C(Nn1c(SCc2ccc(F)cc2)nc2ccsc2c1=O)c1ccccc1	–	inactive: -2.91%
Cc1cccc2cc(CN(Cc3cccs3)C(=S)NCC3CCCO3)c(=O)[nH]c12 (stereo unspecified)	inconclusive: 29.1 µM [activator, single point]	–
Brc1ccc(-c2ccc(/C=N/Nc3nc4ccccc4[nH]3)o2)cc1	active: 5.8 µM	–
CCOC(=O)N1CCN(C(c2cccnc2)c2ccc3cccnc3c2O)CC1 (stereo unspecified)	inconclusive: 29.1 µM [activator, single point]	–
CC(C)(C)c1ccc(Cn2c(=N)n(CC(O)c3ccco3)c3ccccc32)cc1 (stereo unspecified)	inconclusive: 29.1 µM [activator, single point]	–
CC1(C)Cc2cccc(OCC(=O)N3CCN(c4ccc(F)cc4)CC3)c2O1	inconclusive: 32.6 µM [activator, single point]	–
CN1CCN(Cn2cc(/C=C/C(=O)c3ccccc3)c3ccccc32)CC1	inconclusive: 20.6 µM [activator, single point]	–
COc1ccc(/C=C2\SC(=S)N(CCC(=O)N3CCOCC3)C2=O)cc1	–	inactive: -2.47%
CCOC(=O)N/N=C\c1ccc([N+](=O)[O-])s1	inconclusive: 29.1 µM [activator, partial curve, poor fit]	–
COc1cc(C(=O)OCC(=O)Nc2ccc(S(=O)(=O)N3CCCC3)cc2)cc(OC)c1OC	–	inactive: -8.74%
Cc1cc(=O)oc2c3c4c(cc12)OCCN4CCC3	inconclusive: 9.2 µM [activator, partial curve]	–
N#Cc1c(N)n(Cc2ccccc2)c(=O)c2cc([N+](=O)[O-])ccc12	inconclusive: 18.4 µM [activator, partial curve, poor fit]	–
Cn1c2ccccc2c2nnc(SCC(=O)Nc3cccc(O)c3)nc21	–	inconclusive: 110% [activator]

SMILES	Potency	re-replication activation
COc1ccccc1N1CCN(CC(O)COc2c(OC)cccc2OC)CC1 (stereo unspecified)	inconclusive: 13 µM [activator, partial curve]	–
CCc1ccccc1-n1ncc(C(=O)Nc2ccccc2OC)c1C	–	inactive: 0.422%
CC(Oc1cccc(Br)c1)C(=O)NNC(=O)c1ccccn1 (stereo unspecified)	inconclusive: 18.4 µM [activator, single point]	–
COc1ccc(-n2c(C)cc(C=O)c2C)cc1Cl	inconclusive: 3.16 µM [activator, single point]	–
CCN1CCN(c2ccc(Nc3ccnc4ccccc34)cc2)CC1	active: 14.6 µM	–
CCCCN(CC)C(=O)c1cc2cc3ccc(OC)cc3nc2o1	inconclusive: 29.1 µM [activator, single point]	–
COc1ccccc1C(=O)N/C(=C/c1cccc([N+](=O)[O-])c1)C(=O)Nc1cccc(C(=O)O)c1	–	inactive: 0.867%
Cn1c(/C(C#N)=N/O)nc2ccccc21	–	inactive: -1.13%
COc1ccc(CNCCC(c2ccccc2)c2ccc3c(c2)OCO3)cc1 (stereo unspecified)	inconclusive: 3.26 µM [activator, partial curve, poor fit]	–
COc1ccc(-c2oc(=O)c3cc(OC)c(OC)cc3c2-c2ccc3c(c2)OCO3)cc1	inconclusive: 29.1 µM [activator, partial curve, poor fit]	–
O=C(CC(c1ccccc1)c1cc(Br)ccc1O)N1CCCCC1 (stereo unspecified)	–	inactive: 6.82%
O=C(/C=C/c1ccccc1Cl)c1ccc[nH]1	active: 4.61 µM	–
Cn1c(/C=C/c2ccc([N+](=O)[O-])o2)nc2ccccc2c1=O	active: 1.84 µM	–
Clc1cccc(Cl)c1/C=N/Nc1c(Cl)cncc1Cl	active: 8.2 µM	–
CCOC(=O)c1c(NC(=O)c2cccs2)sc(C)c1CC	inconclusive: 29.1 µM [activator, single point]	–
O=C(C1=NN[C@@H]2C(=O)N(c3cccc(C(F)(F)F)c3)C(=O)[C@H]12)C(c1ccccc1)c1ccccc1	inconclusive: 25.9 µM [activator, single point]	–
O=S(=O)(c1cccc(C(F)(F)F)c1)N1CCN(c2nnnn2-c2ccccc2)CC1	inconclusive: 18.4 µM [activator, single point]	–
Cc1ccccc1N=C1NN=C(c2ccccc2F)CS1	inconclusive: 18.4 µM [activator, single point]	–
COCCn1c(SCC(=O)Nc2ccc(C(N)=O)cc2)nc2c([nH]c3ccccc32)c1=O	inconclusive: 29.1 µM [activator, partial curve, poor fit]	–
CC(NC(=O)Nc1ccc(F)cc1)c1ccc2c(c1)OCO2 (stereo unspecified)	–	inactive: 0.153%
Cc1noc(C)c1COC(=O)c1cccc(S(=O)(=O)N2c3ccccc3CC2C)c1 (stereo unspecified)	inconclusive: 25.9 µM [activator, partial curve, poor fit]	–
Cc1cc(N2C(=O)C(O)=C(C(=O)c3ccc(C)o3)C2c2cccc(Oc3ccccc3)c2)no1 (stereo unspecified)	inconclusive: 14.6 µM [activator, partial curve]	–
COC(=O)c1c(NC(=O)Nc2ccc(Cl)cc2)sc(C)c1C	inconclusive: 31.6 µM [activator, single point]	–

Copied from the results shown, 6 compounds:
SMILES	Potency	re-replication activation
CCN1CCN(c2ccc(Nc3ccnc4ccccc34)cc2)CC1	active: 14.6 µM	–
CCCCN(CC)C(=O)c1cc2cc3ccc(OC)cc3nc2o1	inconclusive: 29.1 µM [activator, single point]	–
COc1ccccc1C(=O)N/C(=C/c1cccc([N+](=O)[O-])c1)C(=O)Nc1cccc(C(=O)O)c1	–	inactive: 0.867%
Cn1c(/C(C#N)=N/O)nc2ccccc21	–	inactive: -1.13%
COc1ccc(CNCCC(c2ccccc2)c2ccc3c(c2)OCO3)cc1 (stereo unspecified)	inconclusive: 3.26 µM [activator, partial curve, poor fit]	–
COc1ccc(-c2oc(=O)c3cc(OC)c(OC)cc3c2-c2ccc3c(c2)OCO3)cc1	inconclusive: 29.1 µM [activator, partial curve, poor fit]	–
